Values from PubChem BioAssay AID1259308 (NCATS, 2017)
Shown is an unselected part of about 59,000 reagents. In the full data, about 1,510 (2.6%) got an active call. 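Calls use total luciferase alone and ignore viability, so some active siRNAs may act by altering cell number.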 Reagents against one gene are numbered here. Not all columns of the deposit are shown.

- Aim: 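Genes whose loss raises luciferase production in HEK293 cells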 (primary screen)
- Cells: human HEK293 embryonic kidney cells stably expressing firefly luciferase (HEK-CMV-Luc2-Hygro)
- Reagents: single siRNA against human genes, 0.8 pmol siRNA per well
- Duration: 72 h
- Read-out: 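Luciferase light (ONE-Glo) measured on one replicate plate set and viability (CellTiter-Glo) on the other, scaled to a negative control siRNA, with robust z-scores and luciferase per cell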
- Reading the numbers: total luciferase, z-score: higher = more reporter protein produced
- Hit rule: 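Active when the median/MAD z-score for overall luciferase is greater than 3; a gene was taken forward for validation with new siRNAs if at least two of its three siRNAs passed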
- Meaning of the calls: active = raised luciferase; inactive = no rise

HK1 #1
- total luciferase, z-score: 0.363
- call: inactive

HK1 #2
- total luciferase, z-score: -0.0276
- call: inactive

HK1 #3
- total luciferase, z-score: 1.84
- call: inactive

BMP5 #1
- total luciferase, z-score: 0.295
- call: inactive

BMP5 #2
- total luciferase, z-score: 0.584
- call: inactive

BMP5 #3
- total luciferase, z-score: -0.153
- call: inactive

DNAJC10 #1
- total luciferase, z-score: 0.825
- call: inactive

DNAJC10 #2
- total luciferase, z-score: -0.319
- call: inactive

DNAJC10 #3
- total luciferase, z-score: -1.93
- call: inactive

IFITM3P2 #1
- total luciferase, z-score: -1.61
- call: inactive

IFITM3P2 #2
- total luciferase, z-score: 3.28
- call: active

IFITM3P2 #3
- total luciferase, z-score: 0.468
- call: inactive

CT55 #1
- total luciferase, z-score: -0.681
- call: inactive

CT55 #2
- total luciferase, z-score: -1.94
- call: inactive

CT55 #3
- total luciferase, z-score: 0.293
- call: inactive

ANKUB1 #1
- total luciferase, z-score: 0.505
- call: inactive

ANKUB1 #2
- total luciferase, z-score: -0.58
- call: inactive

ANKUB1 #3
- total luciferase, z-score: 0.188
- call: inactive

Called active (from the list above):
IFITM3P2 #2
- total luciferase, z-score: 3.28
- call: active

The listing continues.
TRPM2 #1
- total luciferase, z-score: 3.55
- call: active

TRPM2 #2
- total luciferase, z-score: 1.18
- call: inactive

TRPM2 #3
- total luciferase, z-score: 0.186
- call: inactive

LY6K #1
- total luciferase, z-score: -2.3
- call: inactive

LY6K #2
- total luciferase, z-score: 0.289
- call: inactive

LY6K #3
- total luciferase, z-score: 0.407
- call: inactive

SAMD3 #1
- total luciferase, z-score: 0.451
- call: inactive

SAMD3 #2
- total luciferase, z-score: 0.42
- call: inactive

SAMD3 #3
- total luciferase, z-score: 0.755
- call: inactive

AKAP19 #1
- total luciferase, z-score: -0.886
- call: inactive

AKAP19 #2
- total luciferase, z-score: -1.77
- call: inactive

AKAP19 #3
- total luciferase, z-score: -2.02
- call: inactive

NPAP1 #1
- total luciferase, z-score: 0.443
- call: inactive

NPAP1 #2
- total luciferase, z-score: -0.355
- call: inactive

NPAP1 #3
- total luciferase, z-score: 0.313
- call: inactive
